# Values of other authors as cited in patent publication US20010007016A1, “PEPTIDE DERIVATIVES” (priority 1994, published 2001).
# At least one structure is not confirmed: it was looked up by name or label, or the drawing left a doubt.
# Conditions: intraventricular administration, higher than morphine; cited from earlier work
smiles,measurement,value
C[C@@H](NC(=O)[C@@H](N)Cc1ccc(O)cc1)C(=O)N[C@@H](Cc1ccccc1)C(=O)NCC(=O)N[C@@H](Cc1ccc(O)cc1)C(=O)N1CCC[C@H]1C(=O)N[C@@H](CO)C(N)=O [Delmorfine],analgesic effect relative to morphine,"about 1,000 fold"
